Data source: PubChem BioAssay AID1259331 (Drosophila RNAi Screening Center, 2017)
This is one part, drawn at random, of about 3,100 reagents tested. 126 of all reagents (4.1%) were called active. 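Calls are per reagent; zinc was so toxic that few knock-downs lowered ATP further, so most hits raise ATP.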 Raw values are not corrected between plates. The numbers tell different reagents against one gene apart. Not given: the amount of reagent.

Assay: 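Genes whose knock-down changes cell survival under toxic zinc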 (primary screen)
Cell system: Drosophila S2R+ cells
Knock-down reagent: long dsRNA against Drosophila genes
Time to read-out: 5 days (4 days knock-down, then 1 day zinc)
Challenge: zinc chloride at 15 mM final level for 1 day
Measured: 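Luminescent ATP assay standing in for viability; Z score is the mean over three replicate plates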
Direction: mean Z score: higher = more ATP than other wells, better survival under zinc; ATP luminescence: higher = more ATP, more viable cells
Active means: 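a reagent is called a hit when its Z score is above 1.5 or below -1.5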
Meaning of the calls: active = hit, ATP up or down; inactive = not a hit

| predicted target | reagent no. | mean Z score | ATP luminescence, replicate 1 | ATP luminescence, replicate 2 | call |
| --- | --- | --- | --- | --- | --- |
| yin | 1 | -0.121 | 47720 | 46451 | inactive |
| yin | 2 | 0.358 | 60812 | 61764 | inactive |
| CG5404 | 1 | 0.245 | 66667 | 63652 | inactive |
| CG5404 | 2 | -0.493 | 45920 | 52813 | inactive |
| loj | 1 | -0.304 | 29273 | 31570 | inactive |
| loj | 2 | -0.223 | 54887 | 58025 | inactive |
| CG9903 | 1 | 0.0823 | 71419 | 63323 | inactive |
| CG9903 | 2 | -0.172 | 54013 | 62038 | inactive |
| CG17321 | 1 | 0.0976 | 52247 | 35959 | inactive |
| CG17321 | 2 | 0.296 | 66034 | 65880 | inactive |
| GC2 | 1 | -0.227 | 36696 | 57087 | inactive |
| GC2 | 2 | 0.659 | 69858 | 69057 | inactive |
| ppk11 | 1 | -0.301 | 47388 | 40022 | inactive |
| CG6126 | 1 | -0.143 | 46674 | 40639 | inactive |
| CG6126 | 2 | -0.432 | 47600 | 38805 | inactive |
| pcx | 1 | -0.293 | 35170 | 43725 | inactive |
| pcx | 2 | -0.926 | 52521 | 48817 | inactive |
| Nox | 1 | -0.0109 | 65554 | 71591 | inactive |
| Nox | 2 | -0.286 | 43976 | 44531 | inactive |
| Nox | 3 | -0.00695 | 59157 | 58951 | inactive |
| CG2519 | 1 | -0.617 | 26839 | 28669 | inactive |
| dome | 1 | -0.42 | 39130 | 41222 | inactive |
| dome | 2 | 0.189 | 54442 | 47686 | inactive |
| dome | 3 | 0.0347 | 51749 | 46588 | inactive |
| ics | 1 | -0.0487 | 62535 | 58716 | inactive |
| ATPsynbeta | 1 | 0.602 | 75295 | 76788 | inactive |

Continued, starting with the last 2 of the part before.
| predicted target | reagent no. | mean Z score | ATP luminescence, replicate 1 | ATP luminescence, replicate 2 | call |
| --- | --- | --- | --- | --- | --- |
| ics | 1 | -0.0487 | 62535 | 58716 | inactive |
| ATPsynbeta | 1 | 0.602 | 75295 | 76788 | inactive |
| HisT | 1 | 0.0519 | 41891 | 42371 | inactive |
| HisT | 2 | -0.626 | 26668 | 27302 | inactive |
| Osi13 | 1 | -0.00127 | 72643 | 64397 | inactive |
| Alg7 | 1 | 0.0249 | 54716 | 58542 | inactive |
| Alg7 | 2 | 0.986 | 65039 | 48234 | inactive |
| mthl2 | 1 | -0.287 | 70665 | 57940 | inactive |
| mthl2 | 2 | -0.54 | 43474 | 50315 | inactive |
| CG17752 | 1 | 0.155 | 38513 | 57614 | inactive |
| CG17752 | 2 | 0.648 | 59775 | 68709 | inactive |
| CG18609 | 1 | 0.188 | 72706 | 76513 | inactive |
| CG18609 | 2 | 0.284 | 67097 | 68675 | inactive |
| CG7882 | 1 | 0.165 | 1.13e5 | 79348 | inactive |
| slv | 1 | -0.382 | 63787 | 66493 | inactive |
| CG31454 | 1 | 0.202 | 51184 | 47086 | inactive |
| CG31454 | 2 | -0.656 | 52332 | 50211 | inactive |
| Ir85a | 1 | 1.27 | 45680 | 65897 | inactive |
| Ir85a | 2 | 0.265 | 65914 | 65022 | inactive |
| JTBR | 1 | 0.368 | 74215 | 82757 | inactive |
| CG7149 | 1 | -0.167 | 49553 | 58454 | inactive |
| CG7149 | 2 | -0.186 | 50419 | 56962 | inactive |
